The other results are listed elsewhere or left out. At the low end of the ranking the order means little.

For the test, the target named is T1, PUM1 PUF domain R3-THE R4-TFR C935T + R936H + Q939E + N971T + H972F + Q975R (UniProt Q14671).
T1 sequence: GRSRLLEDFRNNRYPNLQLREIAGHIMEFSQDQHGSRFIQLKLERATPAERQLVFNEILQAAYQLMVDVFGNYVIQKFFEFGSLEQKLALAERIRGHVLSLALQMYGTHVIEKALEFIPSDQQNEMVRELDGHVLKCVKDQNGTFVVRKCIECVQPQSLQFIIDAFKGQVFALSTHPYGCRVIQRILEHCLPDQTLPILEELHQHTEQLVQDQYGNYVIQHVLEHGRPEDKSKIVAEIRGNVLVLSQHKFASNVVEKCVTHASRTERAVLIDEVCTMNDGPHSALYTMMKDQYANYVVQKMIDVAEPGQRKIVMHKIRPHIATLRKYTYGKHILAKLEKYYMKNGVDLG
The settings on record: yeast three-hybrid, YBZ-1, SC-Leu-His + 0.5 mM 3-AT, 4 days.
Take “GGCUAGAACUAGUGGAUCCCCCGGCGCCCGGCGGCUCGAGCCCGGGUAAGUUUACCCAGUCUGCAUGCCGCCGGGCGCCAUGCCUGCAGGUCGACUCUAGAAAACAUG”: the binding signal (log2 enrichment (interaction score)) was -7.01.

“GGCUAGAACUAGUGGAUCCCCCGGCGCCCGGCGGCUCGAGCCCGGGUAAGUCCACAGCGUCUGCAUGCCGCCGGGCGCCAUGCCUGCAGGUCGACUCUAGAAAACAUG”: the binding signal (log2 enrichment (interaction score)) was -6.71.

For the sequence “GGCUAGAACUAGUGGAUCCCCCGGCGCCCGGCGGCUCGAGCCCGGGUAAGAGCAAGACGUCUGCAUGCCGCCGGGCGCCAUGCCUGCAGGUCGACUCUAGAAAACAUG”, the binding signal (log2 enrichment (interaction score)) was less than -6.61.

“GGCUAGAACUAGUGGAUCCCCCGGCGCCCGGCGGCUCGAGCCCGGGUAAGUGGACGUGGUCUGCAUGCCGCCGGGCGCCAUGCCUGCAGGUCGACUCUAGAAAACAUG”: the binding signal (log2 enrichment (interaction score)) was -7.29.

Turning to “GGCUAGAACUAGUGGAUCCCCCGGCGCCCGGCGGCUCGAGCCCGGGUAAGAGCACUAAGUCUGCAUGCCGCCGGGCGCCAUGCCUGCAGGUCGACUCUAGAAAACAUG”, the binding signal (log2 enrichment (interaction score)) was -6.29.

Regarding “GGCUAGAACUAGUGGAUCCCCCGGCGCCCGGCGGCUCGAGCCCGGGUAAGUUGACGUUGUCUGCAUGCCGCCGGGCGCCAUGCCUGCAGGUCGACUCUAGAAAACAUG”, the binding signal (log2 enrichment (interaction score)) was less than -7.45.

“GGCUAGAACUAGUGGAUCCCCCGGCGCCCGGCGGCUCGAGCCCGGGUAAGUGGAACGAGUCUGCAUGCCGCCGGGCGCCAUGCCUGCAGGUCGACUCUAGAAAACAUG”: the binding signal (log2 enrichment (interaction score)) is -7.09.

As to “GGCUAGAACUAGUGGAUCCCCCGGCGCCCGGCGGCUCGAGCCCGGGUAAGUGGCUUAAGUCUGCAUGCCGCCGGGCGCCAUGCCUGCAGGUCGACUCUAGAAAACAUG”, the binding signal (log2 enrichment (interaction score)) is -7.15.

Turning to “GGCUAGAACUAGUGGAUCCCCCGGCGCCCGGCGGCUCGAGCCCGGGUAAGUUUAUGCCGUCUGCAUGCCGCCGGGCGCCAUGCCUGCAGGUCGACUCUAGAAAACAUG”, the binding signal (log2 enrichment (interaction score)) was -7.29.

With “GGCUAGAACUAGUGGAUCCCCCGGCGCCCGGCGGCUCGAGCCCGGGUAAGUAAUCAUAGUCUGCAUGCCGCCGGGCGCCAUGCCUGCAGGUCGACUCUAGAAAACAUG”, the binding signal (log2 enrichment (interaction score)) was -7.65.

On to “GGCUAGAACUAGUGGAUCCCCCGGCGCCCGGCGGCUCGAGCCCGGGUAAGCGCAUGAUGUCUGCAUGCCGCCGGGCGCCAUGCCUGCAGGUCGACUCUAGAAAACAUG”, for which the binding signal (log2 enrichment (interaction score)) is -6.95.

For “GGCUAGAACUAGUGGAUCCCCCGGCGCCCGGCGGCUCGAGCCCGGGUAAGUCUGCAAAGUCUGCAUGCCGCCGGGCGCCAUGCCUGCAGGUCGACUCUAGAAAACAUG”, the binding signal (log2 enrichment (interaction score)) was less than -6.93.

Turning to “GGCUAGAACUAGUGGAUCCCCCGGCGCCCGGCGGCUCGAGCCCGGGUAAGAGUAUAAAGUCUGCAUGCCGCCGGGCGCCAUGCCUGCAGGUCGACUCUAGAAAACAUG”, the binding signal (log2 enrichment (interaction score)) was -6.84.

“GGCUAGAACUAGUGGAUCCCCCGGCGCCCGGCGGCUCGAGCCCGGGUAAGUGAAAAAGGUCUGCAUGCCGCCGGGCGCCAUGCCUGCAGGUCGACUCUAGAAAACAUG”: the binding signal (log2 enrichment (interaction score)) was -7.07.

As to “GGCUAGAACUAGUGGAUCCCCCGGCGCCCGGCGGCUCGAGCCCGGGUAAGGGGAAAUAGUCUGCAUGCCGCCGGGCGCCAUGCCUGCAGGUCGACUCUAGAAAACAUG”, the binding signal (log2 enrichment (interaction score)) was -7.78.

In the case of “GGCUAGAACUAGUGGAUCCCCCGGCGCCCGGCGGCUCGAGCCCGGGUAAGUUCGCGAAGUCUGCAUGCCGCCGGGCGCCAUGCCUGCAGGUCGACUCUAGAAAACAUG”, the binding signal (log2 enrichment (interaction score)) is -8.33.

In the case of “GGCUAGAACUAGUGGAUCCCCCGGCGCCCGGCGGCUCGAGCCCGGGUAAGCGAUAGAAGUCUGCAUGCCGCCGGGCGCCAUGCCUGCAGGUCGACUCUAGAAAACAUG”, the binding signal (log2 enrichment (interaction score)) was -7.5.

Regarding “GGCUAGAACUAGUGGAUCCCCCGGCGCCCGGCGGCUCGAGCCCGGGUAAGUACACGACGUCUGCAUGCCGCCGGGCGCCAUGCCUGCAGGUCGACUCUAGAAAACAUG”, the binding signal (log2 enrichment (interaction score)) was -6.58.

Regarding “GGCUAGAACUAGUGGAUCCCCCGGCGCCCGGCGGCUCGAGCCCGGGUAAGAUUACGAAGUCUGCAUGCCGCCGGGCGCCAUGCCUGCAGGUCGACUCUAGAAAACAUG”, the binding signal (log2 enrichment (interaction score)) is -5.12.

Take “GGCUAGAACUAGUGGAUCCCCCGGCGCCCGGCGGCUCGAGCCCGGGUAAGAUUAAUUAGUCUGCAUGCCGCCGGGCGCCAUGCCUGCAGGUCGACUCUAGAAAACAUG”: the binding signal (log2 enrichment (interaction score)) is -5.96.

“GGCUAGAACUAGUGGAUCCCCCGGCGCCCGGCGGCUCGAGCCCGGGUAAGUUUGAGUAGUCUGCAUGCCGCCGGGCGCCAUGCCUGCAGGUCGACUCUAGAAAACAUG”: the binding signal (log2 enrichment (interaction score)) is -7.34.

For the sequence “GGCUAGAACUAGUGGAUCCCCCGGCGCCCGGCGGCUCGAGCCCGGGUAAGUGGAAUUAGUCUGCAUGCCGCCGGGCGCCAUGCCUGCAGGUCGACUCUAGAAAACAUG”, the binding signal (log2 enrichment (interaction score)) was -6.67.

Source of the values: publication PMC8384837.
